In the supplement of paper PMC10849652:
Some of the results follow.

Amino acid sequences for entries named in this document (tags omitted). A change or cut given only in a name is not applied to a line headed by its entry.
UniProt Q9BW71: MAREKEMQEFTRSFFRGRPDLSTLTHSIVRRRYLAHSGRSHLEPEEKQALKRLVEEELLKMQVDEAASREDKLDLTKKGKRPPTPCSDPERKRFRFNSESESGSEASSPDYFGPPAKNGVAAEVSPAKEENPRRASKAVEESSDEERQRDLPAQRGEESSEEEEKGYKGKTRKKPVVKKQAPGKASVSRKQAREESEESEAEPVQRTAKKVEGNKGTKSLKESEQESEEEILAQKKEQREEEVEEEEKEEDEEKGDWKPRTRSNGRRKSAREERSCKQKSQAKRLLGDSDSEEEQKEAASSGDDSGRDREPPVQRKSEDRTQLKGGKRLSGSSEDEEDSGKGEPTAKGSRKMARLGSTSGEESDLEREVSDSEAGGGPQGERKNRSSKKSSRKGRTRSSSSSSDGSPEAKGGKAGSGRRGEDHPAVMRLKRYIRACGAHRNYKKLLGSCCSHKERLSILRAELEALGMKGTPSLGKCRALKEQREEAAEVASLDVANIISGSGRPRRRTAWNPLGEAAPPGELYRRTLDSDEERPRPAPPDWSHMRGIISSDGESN
UniProt P35914: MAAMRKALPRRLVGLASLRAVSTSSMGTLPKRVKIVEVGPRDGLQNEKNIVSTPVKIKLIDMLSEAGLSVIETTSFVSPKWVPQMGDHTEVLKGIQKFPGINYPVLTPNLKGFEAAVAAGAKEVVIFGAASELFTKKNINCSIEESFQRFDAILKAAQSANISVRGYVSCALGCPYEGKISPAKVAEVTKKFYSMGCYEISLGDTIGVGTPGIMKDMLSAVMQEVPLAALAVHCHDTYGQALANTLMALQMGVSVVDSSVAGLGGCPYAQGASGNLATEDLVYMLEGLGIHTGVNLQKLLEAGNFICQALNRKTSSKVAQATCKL
UniProt P08397: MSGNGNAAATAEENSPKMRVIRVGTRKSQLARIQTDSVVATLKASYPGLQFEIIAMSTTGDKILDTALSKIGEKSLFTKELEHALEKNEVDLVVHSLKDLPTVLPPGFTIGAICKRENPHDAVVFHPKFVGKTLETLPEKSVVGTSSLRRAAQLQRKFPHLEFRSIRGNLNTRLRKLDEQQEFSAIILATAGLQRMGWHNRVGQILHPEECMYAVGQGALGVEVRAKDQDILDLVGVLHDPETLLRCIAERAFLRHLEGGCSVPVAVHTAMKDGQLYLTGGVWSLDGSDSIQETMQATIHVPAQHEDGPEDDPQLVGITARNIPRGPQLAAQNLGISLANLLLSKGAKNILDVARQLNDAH
UniProt P48723: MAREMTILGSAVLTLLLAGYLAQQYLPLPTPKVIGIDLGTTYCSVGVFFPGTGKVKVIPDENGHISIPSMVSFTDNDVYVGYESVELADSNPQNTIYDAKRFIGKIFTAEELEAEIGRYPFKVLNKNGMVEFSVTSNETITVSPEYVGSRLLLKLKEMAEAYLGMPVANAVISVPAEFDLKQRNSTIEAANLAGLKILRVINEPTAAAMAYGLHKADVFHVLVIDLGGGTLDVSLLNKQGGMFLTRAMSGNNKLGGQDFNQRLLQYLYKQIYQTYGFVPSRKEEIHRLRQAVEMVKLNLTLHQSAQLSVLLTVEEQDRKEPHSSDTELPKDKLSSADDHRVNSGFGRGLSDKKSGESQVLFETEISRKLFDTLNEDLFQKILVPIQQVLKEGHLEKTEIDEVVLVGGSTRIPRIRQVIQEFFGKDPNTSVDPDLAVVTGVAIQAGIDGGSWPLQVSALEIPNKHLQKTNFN
UniProt O14979: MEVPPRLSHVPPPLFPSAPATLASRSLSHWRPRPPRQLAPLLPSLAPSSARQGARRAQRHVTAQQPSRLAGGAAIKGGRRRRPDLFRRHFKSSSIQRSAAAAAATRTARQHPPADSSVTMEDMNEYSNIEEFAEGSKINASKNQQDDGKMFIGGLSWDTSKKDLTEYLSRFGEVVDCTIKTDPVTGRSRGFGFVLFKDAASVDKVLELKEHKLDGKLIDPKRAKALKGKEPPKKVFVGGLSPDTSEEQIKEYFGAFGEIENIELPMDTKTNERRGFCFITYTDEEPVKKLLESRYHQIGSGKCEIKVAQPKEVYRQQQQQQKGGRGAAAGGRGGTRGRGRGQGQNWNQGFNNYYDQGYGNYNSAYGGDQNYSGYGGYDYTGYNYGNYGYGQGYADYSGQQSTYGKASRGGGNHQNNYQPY
UniProt O95757: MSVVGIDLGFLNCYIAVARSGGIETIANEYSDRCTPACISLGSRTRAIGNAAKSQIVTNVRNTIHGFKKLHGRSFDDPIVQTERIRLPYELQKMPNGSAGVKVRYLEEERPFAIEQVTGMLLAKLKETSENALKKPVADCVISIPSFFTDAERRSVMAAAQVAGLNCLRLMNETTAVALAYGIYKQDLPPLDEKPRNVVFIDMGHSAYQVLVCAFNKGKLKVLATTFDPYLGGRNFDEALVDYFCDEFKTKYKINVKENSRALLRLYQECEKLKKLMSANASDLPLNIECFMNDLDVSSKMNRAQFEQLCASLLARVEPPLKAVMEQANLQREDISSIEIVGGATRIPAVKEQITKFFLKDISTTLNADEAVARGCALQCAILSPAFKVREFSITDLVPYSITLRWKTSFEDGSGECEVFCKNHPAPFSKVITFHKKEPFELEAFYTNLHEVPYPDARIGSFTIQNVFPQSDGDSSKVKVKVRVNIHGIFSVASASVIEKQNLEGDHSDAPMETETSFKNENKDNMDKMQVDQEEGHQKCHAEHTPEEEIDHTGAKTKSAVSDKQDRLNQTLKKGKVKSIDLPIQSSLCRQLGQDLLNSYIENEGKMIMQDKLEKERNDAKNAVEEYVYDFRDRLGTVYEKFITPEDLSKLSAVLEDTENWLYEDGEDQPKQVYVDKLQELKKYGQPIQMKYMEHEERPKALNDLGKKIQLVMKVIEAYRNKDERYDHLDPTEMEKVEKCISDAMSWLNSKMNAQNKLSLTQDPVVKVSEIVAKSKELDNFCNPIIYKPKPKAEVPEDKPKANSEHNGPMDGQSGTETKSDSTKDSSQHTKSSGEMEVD
UniProt Q13151: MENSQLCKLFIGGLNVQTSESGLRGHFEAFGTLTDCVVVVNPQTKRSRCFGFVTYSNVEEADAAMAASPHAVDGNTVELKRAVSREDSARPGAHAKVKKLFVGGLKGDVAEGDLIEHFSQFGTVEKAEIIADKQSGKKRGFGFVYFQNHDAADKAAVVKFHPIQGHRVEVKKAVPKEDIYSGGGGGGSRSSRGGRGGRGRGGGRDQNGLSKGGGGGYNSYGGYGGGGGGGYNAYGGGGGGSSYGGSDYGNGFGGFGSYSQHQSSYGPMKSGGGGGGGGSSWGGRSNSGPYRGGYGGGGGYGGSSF
UniProt P26583: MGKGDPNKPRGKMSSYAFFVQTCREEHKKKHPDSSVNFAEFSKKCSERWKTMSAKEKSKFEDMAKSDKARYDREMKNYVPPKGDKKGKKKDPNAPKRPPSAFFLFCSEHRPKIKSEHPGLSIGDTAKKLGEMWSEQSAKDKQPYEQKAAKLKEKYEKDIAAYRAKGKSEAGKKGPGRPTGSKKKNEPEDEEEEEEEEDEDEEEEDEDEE
UniProt Q14103: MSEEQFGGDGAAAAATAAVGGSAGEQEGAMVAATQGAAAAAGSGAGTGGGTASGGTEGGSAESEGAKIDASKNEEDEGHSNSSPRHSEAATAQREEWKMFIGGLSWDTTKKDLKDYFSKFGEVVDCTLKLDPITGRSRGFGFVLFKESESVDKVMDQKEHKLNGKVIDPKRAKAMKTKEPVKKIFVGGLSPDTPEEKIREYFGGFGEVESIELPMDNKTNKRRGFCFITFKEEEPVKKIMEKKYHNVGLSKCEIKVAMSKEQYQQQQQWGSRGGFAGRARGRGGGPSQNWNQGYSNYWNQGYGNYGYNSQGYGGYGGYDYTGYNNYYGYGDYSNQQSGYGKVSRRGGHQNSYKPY
UniProt Q92598: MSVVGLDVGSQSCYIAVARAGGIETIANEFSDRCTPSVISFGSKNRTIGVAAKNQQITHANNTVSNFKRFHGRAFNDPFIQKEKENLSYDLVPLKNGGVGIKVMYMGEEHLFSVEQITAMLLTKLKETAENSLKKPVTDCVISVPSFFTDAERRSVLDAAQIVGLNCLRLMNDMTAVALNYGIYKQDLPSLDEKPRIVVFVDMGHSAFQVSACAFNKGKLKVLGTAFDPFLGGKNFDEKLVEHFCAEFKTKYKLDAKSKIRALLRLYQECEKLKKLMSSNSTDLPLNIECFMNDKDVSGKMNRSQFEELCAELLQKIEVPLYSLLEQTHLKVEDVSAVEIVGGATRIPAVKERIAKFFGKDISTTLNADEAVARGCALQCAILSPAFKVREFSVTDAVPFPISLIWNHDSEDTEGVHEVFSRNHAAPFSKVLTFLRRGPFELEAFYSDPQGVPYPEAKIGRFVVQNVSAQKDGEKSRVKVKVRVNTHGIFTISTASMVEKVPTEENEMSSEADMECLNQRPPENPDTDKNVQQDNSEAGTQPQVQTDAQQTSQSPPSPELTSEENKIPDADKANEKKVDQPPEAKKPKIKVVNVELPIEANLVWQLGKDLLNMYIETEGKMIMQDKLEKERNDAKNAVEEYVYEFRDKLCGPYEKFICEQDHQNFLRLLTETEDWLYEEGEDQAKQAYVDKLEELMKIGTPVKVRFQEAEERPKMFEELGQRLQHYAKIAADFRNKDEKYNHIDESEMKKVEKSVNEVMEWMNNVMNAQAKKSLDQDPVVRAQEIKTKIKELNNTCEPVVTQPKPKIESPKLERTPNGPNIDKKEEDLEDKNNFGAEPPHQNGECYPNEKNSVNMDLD
UniProt Q8WVV9: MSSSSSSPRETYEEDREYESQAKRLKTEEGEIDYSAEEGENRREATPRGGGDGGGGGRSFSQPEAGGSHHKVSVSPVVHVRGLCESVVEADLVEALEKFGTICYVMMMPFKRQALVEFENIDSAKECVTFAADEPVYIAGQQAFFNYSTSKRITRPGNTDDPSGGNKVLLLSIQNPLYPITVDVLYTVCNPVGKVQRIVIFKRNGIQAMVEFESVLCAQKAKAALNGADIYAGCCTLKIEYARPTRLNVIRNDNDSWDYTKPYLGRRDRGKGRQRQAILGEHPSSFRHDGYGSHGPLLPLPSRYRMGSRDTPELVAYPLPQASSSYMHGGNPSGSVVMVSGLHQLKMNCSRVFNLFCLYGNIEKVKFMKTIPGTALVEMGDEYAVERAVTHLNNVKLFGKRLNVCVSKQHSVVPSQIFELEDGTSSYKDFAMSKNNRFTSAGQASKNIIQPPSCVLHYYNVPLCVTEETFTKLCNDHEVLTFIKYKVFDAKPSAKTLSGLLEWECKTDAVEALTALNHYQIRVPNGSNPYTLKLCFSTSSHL
UniProt P17066, whole entry, looked up: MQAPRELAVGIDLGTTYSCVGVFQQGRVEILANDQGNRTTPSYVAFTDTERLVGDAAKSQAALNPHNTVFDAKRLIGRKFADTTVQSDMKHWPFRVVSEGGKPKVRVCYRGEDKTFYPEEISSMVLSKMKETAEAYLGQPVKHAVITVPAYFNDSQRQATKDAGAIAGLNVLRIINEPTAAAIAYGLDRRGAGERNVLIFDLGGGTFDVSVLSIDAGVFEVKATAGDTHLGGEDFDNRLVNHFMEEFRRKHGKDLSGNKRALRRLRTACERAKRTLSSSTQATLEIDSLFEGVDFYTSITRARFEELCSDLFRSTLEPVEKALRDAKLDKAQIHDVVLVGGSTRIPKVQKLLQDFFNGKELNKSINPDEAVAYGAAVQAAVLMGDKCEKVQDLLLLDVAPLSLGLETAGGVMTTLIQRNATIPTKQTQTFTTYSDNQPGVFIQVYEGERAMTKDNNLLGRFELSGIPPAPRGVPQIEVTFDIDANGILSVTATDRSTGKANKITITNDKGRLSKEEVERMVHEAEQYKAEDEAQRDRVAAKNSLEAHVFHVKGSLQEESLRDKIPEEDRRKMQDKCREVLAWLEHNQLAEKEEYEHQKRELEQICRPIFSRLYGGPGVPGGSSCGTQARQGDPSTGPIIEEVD
UniProt P31937: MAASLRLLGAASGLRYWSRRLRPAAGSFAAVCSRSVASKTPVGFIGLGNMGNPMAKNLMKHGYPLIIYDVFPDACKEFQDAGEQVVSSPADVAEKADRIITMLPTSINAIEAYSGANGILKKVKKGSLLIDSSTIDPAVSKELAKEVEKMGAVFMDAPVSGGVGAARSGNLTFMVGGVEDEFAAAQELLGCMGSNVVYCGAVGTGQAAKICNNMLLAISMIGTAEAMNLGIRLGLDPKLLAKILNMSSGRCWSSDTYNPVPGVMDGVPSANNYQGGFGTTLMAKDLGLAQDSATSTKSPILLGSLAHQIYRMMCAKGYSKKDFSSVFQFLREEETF
UniProt Q9Y547: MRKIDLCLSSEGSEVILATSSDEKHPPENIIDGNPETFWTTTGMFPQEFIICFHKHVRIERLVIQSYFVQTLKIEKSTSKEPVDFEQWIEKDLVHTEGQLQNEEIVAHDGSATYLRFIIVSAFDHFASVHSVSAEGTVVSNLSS

Assays:
Test in all cases: log2 fold change, soluble protein after heating vs DMSO (PISA); higher = thermal stabilisation; K562 cells, 10 uM, 30 min; active = over 0.2 and 3.5 SD of the protein, either way, in both replicates (recomputed)
[1] = compound: CC[C@@H]1C(=O)N(C)c2cnc(Nc3ccc(C(=O)NC4CCN(C)CC4)cc3OC)nc2N1C1CCCC1
How it was run: (§1)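 Soluble protein was quantified by TMTpro 16plex LC-MS/MS after channel sums were equalised. It was obtained as the supernatant after 21,000xg for 90 min from pooled aliquots of K562 cells (2×10^6 cells/mL, 10 μM compound, 30 min) heated for 3 min across 48°C-58°C and extracted in PBS with 0.5% NP-40 at 4°C. Thermal stability values are relative to control samples and come from duplicates. They are given as log2 fold changes.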

volasertib = compound: CC[C@@H]1C(=O)N(C)c2cnc(Nc3ccc(C(=O)N[C@H]4CC[C@H](N5CCN(CC6CC6)CC5)CC4)cc3OC)nc2N1C(C)C [volasertib]
How it was run: as §1

[2] = compound: CC[C@H](C)N1C=C(C2=C(C=C(C=C21)C3=CN=C(C=C3)N4CCNCC4)C(=O)NCC5=C(C=C(NC5=O)C)C)C
How it was run: as §1

epoxomicin = compound: CC[C@H](C)[C@@H](C(=O)N[C@@H]([C@@H](C)O)C(=O)N[C@@H](CC(C)C)C(=O)[C@]1(CO1)C)NC(=O)[C@H]([C@@H](C)CC)N(C)C(=O)C [epoxomicin]
How it was run: as §1

[3] = compound: CCn1c(C(=O)N(C2CC2)C2CC2)cc2c3c(ncn3C)c(Nc3cc(C)n(C)n3)nc21
How it was run: as §1

[4] = compound: CCn1cc(-c2ccnc3[nH]c(-c4cccc(CN(C)C)c4)cc23)c(-c2ccc(NC(=O)N(C)C)cc2)n1
How it was run: as §1

[5] = compound: CN(C)CC(=O)Nc1ccc2[nH]c(=O)c3ccccc3c2c1
How it was run: as §1

rosiglitazone = compound: CN(CCOC1=CC=C(C=C1)C[C@H]2C(=O)NC(=O)S2)C3=CC=CC=N3 (racemic) [rosiglitazone]
How it was run: as §1

[6] = compound: CN1C2=C(C3=C1C(=O)N(N=C3)CC4=CC(=CC=C4)N)SC(=C2)S(=O)C
How it was run: as §1

[7] = compound: CN1CCC(CNc2ccc3ncc(-c4cccc(OC(F)(F)F)c4)n3n2)CC1
How it was run: as §1

saracatinib = compound: CN1CCN(CCOc2cc(OC3CCOCC3)c3c(Nc4c(Cl)ccc5c4OCO5)ncnc3c2)CC1 [saracatinib]
How it was run: as §1

sotrastaurin = compound: CN1CCN(c2nc(C3=C(c4c[nH]c5ccccc45)C(=O)NC3=O)c3ccccc3n2)CC1 [sotrastaurin]
How it was run: as §1

alvocidib = compound: CN1CC[C@H](c2c(O)cc(O)c3c(=O)cc(-c4ccccc4Cl)oc23)[C@H](O)C1 [alvocidib]
How it was run: as §1

Tubastatin A = compound: CN1CCc2c(c3ccccc3n2Cc2ccc(C(=O)NO)cc2)C1 [Tubastatin A]
How it was run: as §1

[8] = compound: CNC(=O)C1=CC=CC=C1NC2=NC(=NC=C2Cl)NC3=C(C=C(C=C3)N4CCOCC4)OC
How it was run: as §1

defactinib = compound: CNC(=O)c1ccc(Nc2ncc(C(F)(F)F)c(NCc3nccnc3N(C)S(C)(=O)=O)n2)cc1 [defactinib]
How it was run: as §1

rucaparib = compound: CNCc1ccc(-c2[nH]c3cc(F)cc4c3c2CCNC4=O)cc1 [rucaparib]
How it was run: as §1

[9] = compound: CNc1nc(-c2ccc3c(N)n[nH]c3c2)cc(N2C[C@@H](C(=O)NC3CCCCC3)CC[C@H]2C)n1
How it was run: as §1

encorafenib = compound: COC(=O)N[C@@H](C)CNc1nccc(-c2cn(C(C)C)nc2-c2cc(Cl)cc(NS(C)(=O)=O)c2F)n1 [encorafenib]
How it was run: as §1

[10] = compound: COC(=O)[C@H](CCSC)NC(=O)C1=C(C=C(C=C1)NC[C@H](CS)N)C2=CC=CC=C2
How it was run: as §1

Measured: log2 fold change

HIRIP3 (UniProt Q9BW71)
inactive: [1] -0.036 | volasertib -0.044 | [2] 0.038 | epoxomicin 0.032 | [3] -0.001 | [4] -0.018 | [5] 0.003 | rosiglitazone 0 | [6] -0.041 | [7] -0.056 | saracatinib 0.046 | sotrastaurin 0.015 | alvocidib -0.05 | Tubastatin A 0.052 | [8] -0.059 | defactinib -0.107 | rucaparib -0.091 | [9] -0.021 | encorafenib 0.012 | [10] -0.027

HMGCL (UniProt P35914)
inactive: [1] 0.03 | volasertib 0.002 | [2] 0.011 | epoxomicin 0.042 | [3] 0.012 | [4] -0.131 | [5] -0.015 | rosiglitazone -0.047 | [6] -0.035 | [7] 0.005 | saracatinib 0.057 | sotrastaurin -0.022 | alvocidib -0.055 | Tubastatin A -0.084 | [8] -0.003 | defactinib -0.043 | rucaparib -0.027 | [9] -0.029 | encorafenib -0.02 | [10] 0.037

HMBS (UniProt P08397)
inactive: [1] 0.002 | volasertib 0.054 | [2] -0.014 | epoxomicin 0.012 | [3] 0.026 | [4] 0.008 | [5] -0.001 | rosiglitazone -0.008 | [6] -0.024 | [7] -0.072 | saracatinib 0.031 | sotrastaurin 0.027 | alvocidib 0.008 | Tubastatin A -0.008 | [8] -0.035 | defactinib -0.004 | rucaparib -0.035 | [9] -0.013 | encorafenib -0.016 | [10] 0.019

HSPA13 (UniProt P48723)
inactive: [1] -0.007 | volasertib -0.077 | [2] 0.003 | epoxomicin -0.014 | [3] 0.004 | [4] -0.031 | [5] -0.005 | rosiglitazone -0.015 | [6] -0.056 | [7] 0.158 | saracatinib 0.014 | sotrastaurin -0.015 | alvocidib 0.03 | Tubastatin A 0.036 | [8] -0.048 | defactinib 0.001 | rucaparib -0.019 | [9] 0.018 | encorafenib 0.084 | [10] -0.085

HNRNPDL (UniProt O14979)
inactive: [1] 0.259 | volasertib 0.217 | [2] -0.051 | epoxomicin -0.19 | [3] -0.071 | [4] 0.205 | [5] -0.136 | rosiglitazone -0.155 | [6] 0.173 | [7] 0.225 | saracatinib 0.029 | sotrastaurin 0.091 | alvocidib 0.333 | Tubastatin A -0.052 | [8] 0.297 | defactinib 0.277 | rucaparib 0.248 | [9] -0.048 | encorafenib 0.033 | [10] 0.029

HSPA4L (UniProt O95757)
inactive: [1] -0.015 | volasertib -0.044 | [2] 0.031 | epoxomicin 0.024 | [3] -0.006 | [4] -0.047 | [5] 0.004 | rosiglitazone 0.042 | [6] -0.048 | [7] -0.007 | saracatinib 0.044 | sotrastaurin 0.002 | alvocidib -0.048 | Tubastatin A -0.01 | [8] -0.004 | defactinib -0.029 | rucaparib -0.035 | [9] 0.001 | encorafenib 0.007 | [10] 0

HNRNPA0 (UniProt Q13151)
inactive: [1] 0.051 | volasertib -0.095 | [2] 0.168 | epoxomicin -0.103 | [3] -0.033 | [4] 0.134 | [5] -0.05 | rosiglitazone -0.039 | [6] 0.249 | [7] 0.099 | saracatinib -0.09 | sotrastaurin -0.042 | alvocidib 0.213 | Tubastatin A 0.155 | [8] -0.11 | defactinib 0.311 | rucaparib 0.146 | [9] 0.058 | encorafenib -0.045 | [10] 0.012

HMGB2 (UniProt P26583)
inactive: [1] -0.097 | volasertib 0.052 | [2] 0.07 | epoxomicin 0.031 | [3] 0.061 | [4] 0.02 | [5] 0 | rosiglitazone -0.01 | [6] -0.028 | [7] 0 | saracatinib -0.004 | sotrastaurin 0.03 | alvocidib -0.007 | Tubastatin A -0.003 | [8] 0.02 | defactinib -0.009 | rucaparib 0.049 | [9] 0 | encorafenib -0.057 | [10] 0.024

HNRNPD (UniProt Q14103)
inactive: [1] 0.122 | volasertib 0.188 | [2] -0.016 | epoxomicin -0.185 | [3] -0.06 | [4] 0.19 | [5] -0.064 | rosiglitazone -0.076 | [6] 0.138 | [7] 0.18 | saracatinib -0.032 | sotrastaurin 0.108 | alvocidib 0.209 | Tubastatin A 0.012 | [8] 0.015 | defactinib 0.243 | rucaparib 0.163 | [9] -0.023 | encorafenib 0.017 | [10] 0.036

Pulled one by one from the entries so far (2):
HMGB2 (UniProt P26583)
inactive: [1] -0.097 | volasertib 0.052 | [2] 0.07 | epoxomicin 0.031 | [3] 0.061 | [4] 0.02 | [5] 0 | rosiglitazone -0.01 | [6] -0.028 | [7] 0 | saracatinib -0.004 | sotrastaurin 0.03 | alvocidib -0.007 | Tubastatin A -0.003 | [8] 0.02 | defactinib -0.009 | rucaparib 0.049 | [9] 0 | encorafenib -0.057 | [10] 0.024

HNRNPD (UniProt Q14103)
inactive: [1] 0.122 | volasertib 0.188 | [2] -0.016 | epoxomicin -0.185 | [3] -0.06 | [4] 0.19 | [5] -0.064 | rosiglitazone -0.076 | [6] 0.138 | [7] 0.18 | saracatinib -0.032 | sotrastaurin 0.108 | alvocidib 0.209 | Tubastatin A 0.012 | [8] 0.015 | defactinib 0.243 | rucaparib 0.163 | [9] -0.023 | encorafenib 0.017 | [10] 0.036

Further results follow:

IBA57 (UniProt Q5T440)
inactive: [1] 0.039 | volasertib -0.008 | [2] 0.016 | epoxomicin 0.042 | [3] -0.013 | [4] -0.005 | [5] 0.02 | rosiglitazone 0.017 | [6] -0.105 | [7] 0.014 | saracatinib 0.019 | sotrastaurin -0.001 | alvocidib -0.072 | Tubastatin A 0 | [8] 0.059 | defactinib -0.025 | rucaparib -0.021 | [9] -0.051 | encorafenib 0 | [10] 0.007

HSPH1 (UniProt Q92598)
inactive: [1] -0.126 | volasertib -0.215 | [2] 0.037 | epoxomicin 0.04 | [3] 0.009 | [4] -0.008 | [5] 0.014 | rosiglitazone 0.013 | [6] -0.035 | [7] -0.016 | saracatinib 0 | sotrastaurin -0.024 | alvocidib -0.019 | Tubastatin A -0.003 | [8] 0.062 | defactinib -0.037 | rucaparib 0.036 | [9] -0.018 | encorafenib 0.034 | [10] 0.004

HNRNPLL (UniProt Q8WVV9)
inactive: [1] -0.128 | volasertib -0.346 | [2] 0.118 | epoxomicin -0.088 | [3] -0.081 | [4] -0.033 | [5] 0.211 | rosiglitazone 0.074 | [6] -0.031 | [7] -0.169 | saracatinib -0.028 | sotrastaurin -0.286 | alvocidib -0.204 | Tubastatin A 0.187 | [8] -0.097 | defactinib -0.104 | rucaparib -0.01 | [9] -0.098 | encorafenib 0.224 | [10] -0.003

HSPG2 (UniProt P98160)
inactive: [1] -0.002 | volasertib 0.117 | [2] 0.003 | epoxomicin -0.088 | [3] -0.003 | [4] -0.077 | [5] 0.011 | rosiglitazone 0.032 | [6] -0.005 | [7] 0.13 | saracatinib 0.012 | sotrastaurin 0.002 | alvocidib -0.044 | Tubastatin A -0.01 | [8] 0.02 | defactinib -0.016 | rucaparib -0.008 | [9] -0.085 | encorafenib 0.008 | [10] 0.016

HSPA6 (UniProt P17066)
inactive: [1] 0.021 | volasertib 0.142 | [2] -0.043 | epoxomicin -0.019 | [3] 0.008 | [4] 0.006 | [5] -0.034 | rosiglitazone -0.003 | [6] 0.009 | [7] 0.058 | saracatinib 0.04 | sotrastaurin 0.061 | alvocidib 0.027 | Tubastatin A -0.012 | [8] 0.038 | defactinib 0.03 | rucaparib 0.001 | [9] -0.081 | encorafenib -0.047 | [10] 0.037

HIBADH (UniProt P31937)
inactive: [1] 0.01 | volasertib 0.043 | [2] -0.017 | epoxomicin -0.032 | [3] 0.033 | [4] 0.018 | [5] -0.008 | rosiglitazone -0.013 | [6] -0.037 | [7] 0.07 | saracatinib 0.036 | sotrastaurin 0.055 | alvocidib -0.043 | Tubastatin A 0.005 | [8] 0.018 | defactinib 0.018 | rucaparib 0.003 | [9] -0.016 | encorafenib -0.025 | [10] 0.028

HSPB11 (UniProt Q9Y547)
inactive: [1] -0.019 | volasertib 0.019 | [2] 0.062 | epoxomicin -0.015 | [3] -0.106 | [4] -0.117 | [5] 0.03 | rosiglitazone 0.068 | [6] -0.11 | [7] 0 | saracatinib 0.037 | sotrastaurin 0.026 | alvocidib -0.02 | Tubastatin A 0.145 | [8] 0.133 | defactinib -0.12 | rucaparib -0.016 | [9] 0.037 | encorafenib -0.057 | [10] 0.014
